Test results reported in the supplement of paper PMC6078165.
Values are relative to the signal before dosing, not to a vehicle control; the signal also falls without drug.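 Labels refer to human fibroblasts, largely primary: uterine (C12385, HUF), lung (H6013), bone (Hs27A), adrenal (HADF), skin (WS1), plus mammary HMF and breast cancer-associated Hs343T. Cancer lines are basal-like or mesenchymal-like triple-negative breast cancer. The paper counts as hits responses shifting over 3x the replicate standard deviation. The tissue of the other fibroblasts is not given here.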

System: BT20
Assay: relative JC-1 red fluorescence (viability) vs pre-drug, coculture with fibroblast (fraction); higher = more viable cancer cells
Experimental: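 JC-1 labelled TNBC cells cocultured 1:1 (1,500 cells each) with CellTrace Violet stained primary or stromal fibroblasts in 384-well plates in FluoroBrite medium, treated with one of 42 anticancer drugs at 0.1, 1, 10 or 100 uM. JC-1 red fluorescence (mitochondrial integrity in cancer cells only) was read by plate reader every 8 h for 72 h. Values are normalised to each well's pre-drug value. The stock of one drug was tenfold lower, so its dose labels may be too high.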

CC(C)C[C@H](NC(=O)[C@H](Cc1ccccc1)NC(=O)c1cnccn1)B(O)O [Bortezomib]
relative JC-1 red fluorescence
Conditions	8 h	16 h	24 h	32 h	40 h	48 h	56 h	64 h	72 h
0.1 µM, coculture fibroblast: C12385	0.937	0.964	0.909	0.91	0.858	0.844	0.854	0.864	0.875
0.1 µM, coculture fibroblast: H6013	0.941	0.879	0.786	0.739	0.813	0.82797	0.824	0.855	0.849
0.1 µM, coculture fibroblast: H6019	0.849	0.7671	0.765	0.734	0.732	0.769	0.808	0.84	0.862
0.1 µM, coculture fibroblast: H6076	0.949	0.85	0.767	0.773	0.823	0.838	0.7541	0.77686	0.834
0.1 µM, coculture fibroblast: H6231	0.961	0.893	0.835	0.807	0.848	0.831	0.842	0.853	0.869
0.1 µM, coculture fibroblast: HADF	0.9965	0.866	0.808	0.956	0.958	0.816	0.912	0.823	0.86
0.1 µM, coculture fibroblast: HCFa	0.946	0.887	0.884	0.819	0.837	0.863	0.899	0.91	0.81
0.1 µM, coculture fibroblast: HCPF	0.963	0.8832	0.807	0.766	0.8007	0.8	0.812	0.833	0.841
0.1 µM, coculture fibroblast: HHSteC	0.946	0.873	0.869	0.814	0.816	0.804	0.835	0.843	0.839
0.1 µM, coculture fibroblast: HMF	0.967	0.836	0.684	0.625	0.569	0.5554	0.656	0.688	0.763
0.1 µM, coculture fibroblast: HPFa	0.967	0.958	0.827	0.843	0.86	0.8494	0.88	0.888	0.835
0.1 µM, coculture fibroblast: HUF	0.8741	0.817	0.81	0.754	0.706	0.687	0.699	0.702	0.705
0.1 µM, coculture fibroblast: Hs5	0.9406	0.9	0.902	0.899	0.906	0.91	0.946	0.943	0.965
0.1 µM, coculture fibroblast: Hs27A	0.835	0.891	0.858	0.854	0.856	0.943	0.8723	0.783	0.789
0.1 µM, coculture fibroblast: Hs343T	0.983	0.872	0.679	0.622	0.62077	0.6258	0.641	0.673	0.687
0.1 µM, coculture fibroblast: WS1	0.865	0.793	0.791	0.755	0.698	0.704	0.7212	0.735	0.754
1 µM, coculture fibroblast: C12385	0.895	0.816	0.65	0.526	0.427	0.398	0.368	0.354	0.347
1 µM, coculture fibroblast: H6013	0.95	0.791	0.7308	0.627	0.571	0.571	0.598	0.591	0.591
1 µM, coculture fibroblast: H6019	0.8485	0.741	0.613	0.539	0.492	0.496	0.503	0.513	0.519
1 µM, coculture fibroblast: H6076	0.973	0.81	0.707	0.681	0.703	0.722	0.749	0.762	0.756
1 µM, coculture fibroblast: H6231	0.848	0.954	0.743	0.58	0.528	0.486	0.461	0.434	0.424
1 µM, coculture fibroblast: HADF	0.825	0.851	0.858	0.773	0.724	0.682	0.656	0.621	0.595
1 µM, coculture fibroblast: HCFa	0.91	0.755	0.658	0.511	0.448	0.421	0.426	0.419	0.398
1 µM, coculture fibroblast: HCPF	0.926	0.9	0.755	0.6584	0.59	0.549	0.517	0.514	0.494
1 µM, coculture fibroblast: HHSteC	0.901	0.778	0.719	0.586	0.521	0.474	0.471	0.445	0.421
1 µM, coculture fibroblast: HMF	0.85	0.866	0.665	0.56	0.466	0.419	0.408	0.404	0.4
1 µM, coculture fibroblast: HPFa	0.9253	0.823	0.824	0.715	0.731	0.696	0.697	0.695	0.668
1 µM, coculture fibroblast: HUF	0.911	0.779	0.773	0.67	0.624	0.602	0.599	0.595	0.59
1 µM, coculture fibroblast: Hs5	0.876	0.851	0.7011	0.606	0.528	0.499	0.486	0.46	0.444
1 µM, coculture fibroblast: Hs27A	0.824	0.803	0.944	0.859	0.806	0.7592	0.763	0.7446	0.7125
1 µM, coculture fibroblast: Hs343T	0.782	0.89	0.733	0.611	0.496	0.449	0.424	0.425	0.425
1 µM, coculture fibroblast: WS1	0.915	0.8148	0.726	0.603	0.522	0.512	0.492	0.484	0.487
10 µM, coculture fibroblast: C12385	0.8691	0.808	0.738	0.623	0.521	0.481	0.465	0.449	0.441
10 µM, coculture fibroblast: H6013	0.9074	0.768	0.701	0.589	0.559	0.548	0.578	0.574	0.577
10 µM, coculture fibroblast: H6019	0.8749	0.77717	0.704	0.592	0.516	0.501	0.492	0.5	0.504
10 µM, coculture fibroblast: H6076	0.987	0.829	0.692	0.65	0.653	0.653	0.669	0.67	0.668
10 µM, coculture fibroblast: H6231	0.859	0.8381	0.679	0.577	0.538	0.51	0.49	0.479	0.464
10 µM, coculture fibroblast: HADF	0.962	0.889	0.792	0.627	0.546	0.489	0.487	0.474	0.448
10 µM, coculture fibroblast: HCFa	0.946	0.902	0.891	0.759	0.675	0.631	0.645	0.639	0.62
10 µM, coculture fibroblast: HCPF	0.954	0.842	0.754	0.71	0.718	0.68	0.649	0.646	0.612
10 µM, coculture fibroblast: HHSteC	0.8923	0.845	0.815	0.635	0.543	0.497	0.496	0.48	0.463
10 µM, coculture fibroblast: HMF	0.809	0.805	0.633	0.525	0.464	0.43	0.445	0.428	0.416
10 µM, coculture fibroblast: HPFa	0.916	0.764	0.87	0.679	0.596	0.546	0.54	0.524	0.503
10 µM, coculture fibroblast: HUF	0.865	0.762	0.694	0.543	0.452	0.411	0.4	0.395	0.384
10 µM, coculture fibroblast: Hs5	0.899	0.856	0.6747	0.574	0.521	0.487	0.486	0.464	0.464
10 µM, coculture fibroblast: Hs27A	0.83	0.885	0.8806	0.724	0.645	0.612	0.608	0.596	0.561
10 µM, coculture fibroblast: Hs343T	0.914	0.851	0.657	0.512	0.404	0.362	0.346	0.345	0.325
10 µM, coculture fibroblast: WS1	0.826	0.718	0.64	0.546	0.461	0.419	0.406	0.393	0.384
100 µM, coculture fibroblast: C12385	0.897	0.83	0.705	0.569	0.541	0.497	0.4447	0.422	0.4077
100 µM, coculture fibroblast: H6013	0.835	0.855	0.758	0.641	0.587	0.57	0.59	0.577	0.567
100 µM, coculture fibroblast: H6019	0.858	0.763	0.715	0.651	0.6309	0.6222	0.613	0.617	0.619
100 µM, coculture fibroblast: H6076	0.884	0.831	0.64	0.543	0.495	0.485	0.484	0.487	0.479
100 µM, coculture fibroblast: H6231	0.797	0.938	0.765	0.681	0.695	0.661	0.639	0.611	0.578
100 µM, coculture fibroblast: HADF	0.873	0.838	0.898	0.746	0.664	0.6279	0.611	0.588	0.552
100 µM, coculture fibroblast: HCFa	0.835	0.841	0.736	0.749	0.664	0.608	0.589	0.573	0.546
100 µM, coculture fibroblast: HCPF	0.806	0.932	0.735	0.6063	0.546	0.478	0.452	0.438	0.396
100 µM, coculture fibroblast: HHSteC	0.901	0.828	0.858	0.716	0.685	0.6494	0.6321	0.6061	0.5775
100 µM, coculture fibroblast: HMF	0.9739	0.823	0.652	0.557	0.501	0.454	0.442	0.43	0.409
100 µM, coculture fibroblast: HPFa	0.959	0.867	0.822	0.697	0.666	0.619	0.614	0.597	0.562
100 µM, coculture fibroblast: HUF	0.908	0.832	0.738	0.571	0.49	0.451	0.436	0.424	0.413
100 µM, coculture fibroblast: Hs5	0.825	0.86	0.697	0.61	0.561	0.527	0.507	0.489	0.473
100 µM, coculture fibroblast: Hs27A	0.865	0.825	0.897	0.842	0.883	0.836	0.834	0.811	0.773
100 µM, coculture fibroblast: Hs343T	0.857	0.83573	0.676	0.575	0.515	0.481	0.446	0.446	0.424
100 µM, coculture fibroblast: WS1	0.8831	0.768	0.67	0.535	0.475	0.463	0.428	0.405	0.394
